Results taken from patent US11576979B2, “Pyrrolobenzodiazepine prodrugs and antibody conjugates thereof” (GENENTECH, INC., priority 2016, dated 2023).

Key:
KPL-4 Cell line = experiment: Cell viability, DTD-activated quinone prodrugs (Example 15); type: cell-based
Protocol: (§1) The toxicity of PBD dimer diaphorase prodrug 1, PBD monomer diaphorase prodrug 2, PBD dimer control 1 and PBD monomer control 1 were evaluated against KPL-4 and WSU cell lines for cell viability. The KPL-4 cell line is was a high DTD cell line characterized by NQO1 nRPKM of 839 and the WSU cell line was a low DTD cell line characterized by a NQO1 nRPKM of 1.36. The IC50 ratios are based on the prodrug IC50 value relative to the PBD dimer control.

WSU Cell line = experiment: as above; type: cell-based
Protocol: as §1

Row | Compound | Ratio (prodrug IC50 relative to control) (KPL-4 Cell line) | Ratio (prodrug IC50 relative to control) (WSU Cell line)
1 | C=C1C[C@H]2C(O)N(C(=O)OCc3cc4c(n3C)C(=O)C=C(OC)C4=O)c3cc(OC)c(OC)cc3C(=O)N2C1 (stereo partly shown) [PBD monomer diaphorase prodrug 2] | 1 | 5
2 | C=C1C[C@H]2C=Nc3cc(OCCCCCOc4cc5c(cc4OC)C(=O)N4CC(=C)C[C@H]4C(O)N5C(=O)OCc4cc5c(n4C)C(=O)C=C(OC)C5=O)c(OC)cc3C(=O)N2C1 (stereo partly shown) [PBD dimer diaphorase prodrug 1] | 17 | 43
